PubChem BioAssay AID1159578 – Peter MacCallum Cancer Centre | 2015

Assay: 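siRNA pools altering how lymphatic endothelial cells close a scratch wound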 (primary screen)
System: human lymphatic endothelial cells
Reagent: siRNA pool against human genes, 40 nM
Time to read-out: 48 h after transfection
Measured: 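Cells stained with dye and imaged after a scratch; covered wound area and nuclei counted, duplicates averaged, migration set against mock wells and turned into a robust z-score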
Direction: migration robust z-score: higher = faster migration into the scratch; migration relative to mock: higher = more scratch area covered than mock; nuclei per well: higher = more cells in the well
Hit rule: 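Pools averaging fewer than 3300 nuclei are never called; remaining pools count as changed when migration robust z lies outside -2 to 2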
Meaning of the calls: active = migration changed; inactive = no migration change, or too few cells
Shown is a random part of about 18,000 reagents. About 1,030 of them (5.7%) were called active. 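Inactive calls also include pools with fewer than 3300 nuclei, whose migration was not assessed.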 Raw values vary from plate to plate and are shown uncorrected. Entries without a mark were called inactive.

| gene | PubChem SID | migration robust z-score | migration class with cell-count check | migration relative to mock | nuclei per well, duplicate mean |
| --- | --- | --- | --- | --- | --- |
| CNTN4 (contactin 4) | SID255363532 | 0.7 | migration z between -2 and 2; enough cells | 1.06 | 5557 |
| AQP5 (aquaporin 5) | SID255348367 | 0.18 | migration z between -2 and 2; enough cells | 0.84 | 5067 |
| CNR2 (cannabinoid receptor 2) | SID255348997 | -0.84 | migration z between -2 and 2; enough cells | 0.64 | 5770 |
| PSMD8 (proteasome 26S subunit, non-ATPase 8) | SID255351906 | -0.19 | migration z between -2 and 2; enough cells | 0.84 | 6124 |
| SH3TC2 (SH3 domain and tetratricopeptide repeats 2) | SID255360341 | -0.24 | migration z between -2 and 2; enough cells | 0.82 | 4654 |
| MIF4GD (MIF4G domain containing) | SID255359378 | -0.82 | migration z between -2 and 2; enough cells | 0.67 | 6334 |
| GALNT12 (polypeptide N-acetylgalactosaminyltransferase 12) | SID255360395 | -2.1 (active) | migration z below -2; enough cells | 0.4 | 6017 |
| COCH (cochlin) | SID255349292 | 0.49 | migration z between -2 and 2; enough cells | 1.01 | 6256 |
| IER5 (immediate early response 5) | SID255357610 | -0.82 | migration z between -2 and 2; enough cells | 0.67 | 4445 |
| ZNF878 (zinc finger protein 878) | SID255366202 | -0.26 | migration z between -2 and 2; enough cells | 0.82 | 5705 |
| PARD6A (par-6 family cell polarity regulator alpha) | SID255357381 | 1.1 | migration z between -2 and 2; enough cells | 1.18 | 5142 |
| PTDSS2 (phosphatidylserine synthase 2) | SID255360871 | 0.34 | migration z between -2 and 2; enough cells | 0.98 | 7459 |
| FCHO1 (FCH and mu domain containing endocytic adaptor 1) | SID255356024 | 0.82 | migration z between -2 and 2; enough cells | 1.09 | 5448 |
| ARL17B (ARF like GTPase 17B) | SID255366064 | 0.4 | migration z between -2 and 2; enough cells | 0.99 | 5552 |
| NDUFB1 (NADH:ubiquinone oxidoreductase subunit B1) | SID255351169 | 0.18 | migration z between -2 and 2; enough cells | 0.84 | 6038 |
| PRCP (prolylcarboxypeptidase) | SID255351771 | 0.42 | migration z between -2 and 2; enough cells | 0.88 | 6209 |
| MPO (myeloperoxidase) | SID255351020 | -0.7 | migration z between -2 and 2; enough cells | 0.67 | 6190 |
| RNF138 (ring finger protein 138) | SID255357722 | 0.02 | migration z between -2 and 2; enough cells | 0.81 | 5017 |
| OR13C4 (olfactory receptor family 13 subfamily C member 4) | SID255363056 | 0.6 | migration z between -2 and 2; enough cells | 1.04 | 6022 |
| CUX2 (cut like homeobox 2) | SID255356156 | -1.43 | migration z between -2 and 2; enough cells | 0.52 | 4642 |
| GRHPR (glyoxylate and hydroxypyruvate reductase) | SID255354236 | -0.8 | migration z between -2 and 2; enough cells | 0.68 | 6526 |
| UBXN4 (UBX domain protein 4) | SID255356056 | -0.98 | migration z between -2 and 2; enough cells | 0.63 | 6057 |
| CIRSR (corepressor of RBPJ and splicing regulator) | SID255354359 | -1.52 | migration z between -2 and 2; enough cells | 0.5 | 3732 |
| PPTC7 (protein phosphatase targeting COQ7) | SID255363710 | -1.38 | migration z between -2 and 2; enough cells | 0.54 | 5464 |
| RHD (Rh blood group D antigen) | SID255352120 | 0.55 | migration z between -2 and 2; enough cells | 0.91 | 5420 |
| MLLT1 (MLLT1 super elongation complex subunit) | SID255350982 | 1.01 | migration z between -2 and 2; enough cells | 1 | 4362 |
| NAAA (N-acylethanolamine acid amidase) | SID255356956 | 1.09 | migration z between -2 and 2; enough cells | 1.02 | 4846 |
| TAS2R3 (taste 2 receptor member 3) | SID255357366 | 0.74 | migration z between -2 and 2; enough cells | 1.08 | 6968 |
| FXYD6 (FXYD domain containing ion transport regulator 6) | SID255357935 | -1.14 | migration z between -2 and 2; enough cells | 0.58 | 4746 |
| C16orf86 (chromosome 16 open reading frame 86) | SID255365476 | -1.15 | migration z between -2 and 2; enough cells | 0.58 | 6819 |
| POU3F4 (POU class 3 homeobox 4) | SID255351706 | -1.22 | migration z between -2 and 2; enough cells | 0.57 | 5658 |
| GRHL2 (grainyhead like transcription factor 2) | SID255360605 | -1.13 | migration z between -2 and 2; enough cells | 0.6 | 5297 |
| DCAF12L2 (DDB1 and CUL4 associated factor 12 like 2) | SID255365098 | -0.91 | migration z between -2 and 2; enough cells | 0.65 | 6896 |
| UBE2R2 (ubiquitin conjugating enzyme E2 R2) | SID255358274 | 1.19 | migration z between -2 and 2; enough cells | 1.03 | 6038 |
| SOD2 (superoxide dismutase 2) | SID255352565 | 0.13 | migration z between -2 and 2; enough cells | 0.83 | 5342 |
| GMDS (GDP-mannose 4,6-dehydratase) | SID255349926 | 0.26 | migration z between -2 and 2; enough cells | 0.86 | 5107 |
| HSPB3 (heat shock protein family B (small) member 3) | SID255353952 | -0.52 | migration z between -2 and 2; enough cells | 0.75 | 4686 |
| AFDN-DT (AFDN divergent transcript) | SID255366147 | 0.56 | migration z between -2 and 2; enough cells | 1.02 | 5996 |
| OR9G4 (olfactory receptor family 9 subfamily G member 4) | SID255364645 | 2.07 (active) | migration z above 2; enough cells | 1.43 | 6748 |
| H2BC10 (H2B clustered histone 10) | SID255353489 | 1.4 | migration z between -2 and 2; enough cells | 1.25 | 4969 |
| USP1 (ubiquitin specific peptidase 1) | SID255353083 | -2.05 (active) | migration z below -2; enough cells | 0.41 | 4967 |
| RNASET2 (ribonuclease T2) | SID255353695 | 1.12 | migration z between -2 and 2; enough cells | 1.02 | 5517 |
| IL26 (interleukin 26) | SID255358874 | -0.05 | migration z between -2 and 2; enough cells | 0.86 | 5946 |
| C6orf47 (chromosome 6 open reading frame 47) | SID255359607 | -0.14 | migration z between -2 and 2; enough cells | 0.84 | 5220 |
| ZNF17 (zinc finger protein 17) | SID255353192 | -0.4 | migration z between -2 and 2; enough cells | 0.78 | 6944 |
| SPANXN5 (SPANX family member N5) | SID255366012 | 0.59 | migration z between -2 and 2; enough cells | 1.04 | 6784 |
| DHX35 (DEAH-box helicase 35) | SID255359733 | -0.2 | migration z between -2 and 2; enough cells | 0.84 | 6388 |
| TMEM266 (transmembrane protein 266) | SID255362582 | 1.8 | migration z between -2 and 2; enough cells | 1.35 | 5599 |
| TSC1 (TSC complex subunit 1) | SID255352978 | 0.27 | migration z between -2 and 2; enough cells | 0.96 | 6952 |
| ZNF557 (zinc finger protein 557) | SID255360265 | 0.98 | migration z between -2 and 2; enough cells | 1.14 | 5703 |
| PLS3 (plastin 3) | SID255351642 | 1.6 | migration z between -2 and 2; enough cells | 1.3 | 5021 |
| GATD1 (glutamine amidotransferase class 1 domain containing 1) | SID255365236 | 0.69 | migration z between -2 and 2; enough cells | 1.06 | 4648 |
| CCDC47 (coiled-coil domain containing 47) | SID255359227 | 0.48 | migration z between -2 and 2; enough cells | 1 | 6545 |
| CACNB3 (calcium voltage-gated channel auxiliary subunit beta 3) | SID255348658 | -0.42 | migration z between -2 and 2; enough cells | 0.73 | 5145 |
| EMC2 (ER membrane protein complex subunit 2) | SID255354477 | -0.9 | migration z between -2 and 2; enough cells | 0.65 | 6379 |
| HIC2 (HIC ZBTB transcriptional repressor 2) | SID255356003 | 0.14 | migration z between -2 and 2; enough cells | 0.92 | 5045 |
| LRRIQ1 (leucine rich repeats and IQ motif containing 1) | SID255361203 | 1.21 | migration z between -2 and 2; enough cells | 1.2 | 5818 |

Not a retest: 9 of the entries above.
| gene | PubChem SID | migration robust z-score | migration class with cell-count check | migration relative to mock | nuclei per well, duplicate mean |
| --- | --- | --- | --- | --- | --- |
| MPO (myeloperoxidase) | SID255351020 | -0.7 | migration z between -2 and 2; enough cells | 0.67 | 6190 |
| RNF138 (ring finger protein 138) | SID255357722 | 0.02 | migration z between -2 and 2; enough cells | 0.81 | 5017 |
| OR13C4 (olfactory receptor family 13 subfamily C member 4) | SID255363056 | 0.6 | migration z between -2 and 2; enough cells | 1.04 | 6022 |
| CUX2 (cut like homeobox 2) | SID255356156 | -1.43 | migration z between -2 and 2; enough cells | 0.52 | 4642 |
| GRHPR (glyoxylate and hydroxypyruvate reductase) | SID255354236 | -0.8 | migration z between -2 and 2; enough cells | 0.68 | 6526 |
| UBXN4 (UBX domain protein 4) | SID255356056 | -0.98 | migration z between -2 and 2; enough cells | 0.63 | 6057 |
| CIRSR (corepressor of RBPJ and splicing regulator) | SID255354359 | -1.52 | migration z between -2 and 2; enough cells | 0.5 | 3732 |
| PPTC7 (protein phosphatase targeting COQ7) | SID255363710 | -1.38 | migration z between -2 and 2; enough cells | 0.54 | 5464 |
| RHD (Rh blood group D antigen) | SID255352120 | 0.55 | migration z between -2 and 2; enough cells | 0.91 | 5420 |
